Measured data: PubChem BioAssay AID493246 (Drosophila RNAi Screening Center, 2011)
The screen tested about 21,000 reagents; this is an unselected part of those that have a named target and a result. In the full data, 429 (2%) got an active call. 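Values are raw and not normalised between plates; calls rest on per-plate z-scores that were not deposited.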 Unmarked entries are inactive. Not given: the amount of reagent, the time to read-out.

Assay: 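Identify essential fly genes by loss of cell viability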 (primary screen)
System: Drosophila Kc and S2R+ cells
Reagents: long dsRNA against Drosophila genes
Measured: 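Cell number per well after knock-down, printed as raw plate values; calls were based on per-plate z-scores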
Direction: Kc cell number and S2R+ cell number: higher = more cells remaining
Call rule: 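Active when the per-plate z-score of cell number is 3 or more in the direction of fewer cells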

gene | dsRNA | Kc cell number, rep 1 | Kc cell number, rep 2 | S2R+ cell number, rep 1 | S2R+ cell number, rep 2
Mlh1 | DRSC07473 | 1.35e6 | 1.43e6 | 1.11e6 | 1.19e6
Rab8 | DRSC11261 | 1.69e6 | 1.79e6 | 1.33e6 | 1.29e6
Tsp42Eq (Tetraspanin 42Eq) | DRSC06180 | 1.57e6 | 1.64e6 | 1.35e6 | 1.43e6
Pa1 (PTIP associated 1) | DRSC19422 | 1.49e6 | 1.46e6 | 9.40e5 | 1.06e6
EndoGI (Endonuclease G inhibitor) | DRSC01964 | 1.53e6 | 1.66e6 | 1.32e6 | 1.41e6
CG12480 | DRSC19460 | 1.54e6 | 1.53e6 | 1.04e6 | 1.21e6
CG10357 | DRSC08155 | 1.40e6 | 1.26e6 | 9.95e5 | 1.18e6
CG10462 | DRSC02058 | 1.37e6 | 1.44e6 | 1.34e6 | 1.42e6
CG5639 | DRSC15851 | 1.49e6 | 1.60e6 | 9.93e5 | 1.19e6
CG16957 | DRSC02545 | 1.48e6 | 1.56e6 | 1.25e6 | 1.38e6
trbd (trabid) | DRSC16494 | 1.37e6 | 1.49e6 | 1.24e6 | 1.29e6
Nf-YB (Nuclear factor Y-box B) | DRSC02057 | 1.52e6 | 1.66e6 | 1.40e6 | 3.83e5
GluRIA (Glutamate receptor IA) | DRSC11176 | 1.51e6 | 1.52e6 | 1.28e6 | 1.31e6
Glys (Glycogen synthase) | DRSC16130 | 1.66e6 | 1.74e6 | 1.40e6 | 1.47e6
s-cup (stanley-cup) | DRSC06277 | 1.48e6 | 1.52e6 | 1.19e6 | 1.39e6
s-cup (stanley-cup) | DRSC06278 | 1.56e6 | 1.57e6 | 1.24e6 | 1.40e6
CG14120 | DRSC10124 | 1.40e6 | 1.46e6 | 1.20e6 | 1.28e6
Mpi (Mannose phosphate isomerase) | DRSC16417 | 1.55e6 | 1.61e6 | 1.36e6 | 1.42e6
CG16837 | DRSC04283 | 1.46e6 | 1.58e6 | 1.40e6 | 1.40e6
CG12898 | DRSC06213 | 1.80e6 | 1.81e6 | 1.41e6 | 1.59e6
CG12780 | DRSC06169 | 1.53e6 | 1.70e6 | 1.28e6 | 1.41e6
CG31807 | DRSC01550 | 1.42e6 | 1.48e6 | 9.23e5 | 1.10e6
CG9400 | DRSC20182 | 5.38e5 | – | 8.47e5 | –
CG15056 | DRSC19630 | 1.56e6 | 1.61e6 | 1.12e6 | 1.23e6

Sorted by “S2R+ cell number, rep 1” (descending): some entries from above
gene | dsRNA | Kc cell number, rep 1 | Kc cell number, rep 2 | S2R+ cell number, rep 1 | S2R+ cell number, rep 2
CG31807 | DRSC01550 | 1.42e6 | 1.48e6 | 9.23e5 | 1.10e6
CG9400 | DRSC20182 | 5.38e5 | – | 8.47e5 | –
